Measured values as given in publication doi:10.1101/2023.05.17.541096 (bioRxiv, 2023).
Results are given in words; binding and its absence hold for the method and conditions named. Some results given as binding are weak or reduced against the parent protein; the word gives no strength.

Molecular target: T1, DMC1 (UniProt Q14565)
T1 sequence: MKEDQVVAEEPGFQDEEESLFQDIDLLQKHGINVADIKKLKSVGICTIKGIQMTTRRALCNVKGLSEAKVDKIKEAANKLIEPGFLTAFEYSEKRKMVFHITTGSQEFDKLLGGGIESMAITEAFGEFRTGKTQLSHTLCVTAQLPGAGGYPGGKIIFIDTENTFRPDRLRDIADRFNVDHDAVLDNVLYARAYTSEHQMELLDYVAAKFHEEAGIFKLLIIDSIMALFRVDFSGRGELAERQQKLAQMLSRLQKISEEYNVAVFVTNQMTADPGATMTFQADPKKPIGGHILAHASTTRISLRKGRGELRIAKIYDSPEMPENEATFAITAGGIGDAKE
Assay: native gel or EMSA

- binding: binds
B1: human FIGNL1ΔN (FIGNL1 without the N-terminal 284 aa) (domain or fragment, UniProt Q6PIW4 285-674)
chain: GPKEDSSLPTFKTAKEQLWVDQQKKYHQPQRASGSSYGGVKKSLGASRSRGILGKFVPPIPKQDGGEQNGGMQCKPYGAGPTEPAHPVDERLKNLEPKMIELIMNEIMDHGPPVNWEDIAGVEFAKATIKEIVVWPMLRPDIFTGLRGPPKGILLFGPPGTGKTLIGKCIASQSGATFFSISASSLTSKWVGEGEKMVRALFAVARCQQPAVIFIDEIDSLLSQRGDGEHESSRRIKTEFLVQLDGATTSSEDRILVVGATNRPQEIDEAARRRLVKRLYIPLPEASARKQIVINLMSKEQCCLSEEEIEQIVQQSDAFSGADMTQLCREASLGPIRSLQTADIATITPDQVRPIAYIDFENAFRTVRPSVSPKDLELYENWNKTFGCGK
